The campaign covered roughly 1,400 compounds. Fewer than 10 were called active. Roughly 8% stayed inconclusive and do not appear here. Calls follow the shape of the dose curve; as a rule, active = well fitted curve in the direction sought with a large enough effect; inconclusive = small, poorly fitted or top-dose-only effect, or another doubt; inactive = no such curve, though single readings can be large or run the other way. The list shows a part of the results.
These compounds were tested against Transient receptor potential cation channel subfamily V member 1 (Homo sapiens) (UniProt Q8NER1) (assay: qHTS Assay for Compounds that Act as Potentiators of the Vanilloid Receptor 1: Hit Validation). Conditions: TRPV1-expressing cells, Fluo-8 calcium influx, capsaicin EC20; series mostly up to 42.1 µM; activity change, positive = potentiation: at the top concentration.
Summary of the method: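 TRPV1 cells (2000/well, overnight 35.5 °C) loaded with Fluo-8 calcium dye 40–90 min at room temperature. FDSS fluorescence (ex 480/em 520 nm) read 3 min after compound, then 2 min after capsaicin at EC20.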
Also: % of control where 0% means no effect.

Amino acid sequences for entries named in this document (tags omitted).
UniProt Q8NER1, whole entry, looked up: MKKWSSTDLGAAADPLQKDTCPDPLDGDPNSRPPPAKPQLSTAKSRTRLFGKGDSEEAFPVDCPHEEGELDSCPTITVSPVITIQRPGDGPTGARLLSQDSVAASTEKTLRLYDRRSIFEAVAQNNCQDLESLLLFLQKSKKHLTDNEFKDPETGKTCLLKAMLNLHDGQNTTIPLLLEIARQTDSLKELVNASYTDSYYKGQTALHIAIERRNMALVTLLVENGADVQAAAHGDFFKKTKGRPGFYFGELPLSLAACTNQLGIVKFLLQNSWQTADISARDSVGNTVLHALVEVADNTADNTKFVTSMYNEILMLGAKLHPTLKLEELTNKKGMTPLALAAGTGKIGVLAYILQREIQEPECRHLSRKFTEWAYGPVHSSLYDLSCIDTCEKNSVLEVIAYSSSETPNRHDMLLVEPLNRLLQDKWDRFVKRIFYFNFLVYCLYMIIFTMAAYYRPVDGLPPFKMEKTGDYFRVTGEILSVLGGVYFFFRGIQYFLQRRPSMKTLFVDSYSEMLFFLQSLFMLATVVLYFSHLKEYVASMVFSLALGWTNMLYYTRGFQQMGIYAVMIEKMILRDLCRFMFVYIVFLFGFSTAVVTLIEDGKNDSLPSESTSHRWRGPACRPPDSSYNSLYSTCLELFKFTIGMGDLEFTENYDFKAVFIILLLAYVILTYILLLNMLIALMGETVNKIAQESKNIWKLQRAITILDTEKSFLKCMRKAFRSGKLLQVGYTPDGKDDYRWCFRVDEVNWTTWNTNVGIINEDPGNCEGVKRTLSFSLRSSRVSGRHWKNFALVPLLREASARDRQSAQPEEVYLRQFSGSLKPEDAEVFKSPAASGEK

Activity change, positive = potentiation, inactive:
Cc1cccn2c(=O)c3cc(C(=O)NCC4CCCO4)c(=N)n(Cc4ccc(F)cc4)c3nc12 (stereo not given) -39%, COc1cc2cc(Oc3ccc4ccc(=O)oc4c3)c(=O)oc2cc1OC(=O)/C=C/c1ccccc1 -1.77%, Cc1cc(C)c(C#N)c(Cl)n1 -10.6%, COc1cc(/C=N/O)cc(Br)c1OS(=O)(=O)c1ccc(C)cc1 -12.8%, Cc1cccc(NCc2cc(Cl)cc(Cl)c2O)n1 -19.8%, O=C(Nc1ccc(F)cc1)c1cc2c(s1)CCCC2 -36.6%, CCOC(=O)c1ccc(NC(=O)N2CCN(c3cccc(OC)c3)CC2)cc1 -30.5%, O=C(Nc1ccc(N2CCCC2)c(Cl)c1)c1ccc([N+](=O)[O-])o1 -35.3%, CCCCNC(=O)C(Sc1ccccc1)c1ccccc1 (stereo not given) -4.21%, C[C@H](NC(=O)c1nc[nH]c1C(=O)NCCCCCN)C(=O)OC(C)(C)C -12.5%, O=C(CCCOc1ccc(Cl)cc1)N1CCCCC1 -10.7%, O=C(COC(=O)c1ccc[nH]c1=O)Nc1ccc2c(c1)OC(F)(F)O2 2.13%, COCC(C)NC(=O)COc1nncc2ccccc12 (stereo not given) -5.1%, CC(C)COc1ccc(-c2nnn(CC(=O)N3CCCC3)n2)cc1 0.6%, COc1ccc(-n2c(COc3ccc(C)cc3)n[nH]c2=S)cc1 -4.34%, CCOc1ccccc1OCCC(=O)NNC(=O)Cn1nc(C)cc1C 1.1%, CC(C)NC(=O)c1ccc2c(=O)n(CC3CCCO3)c(=S)[nH]c2c1 (stereo not given) -5.52%, CCOc1ccc(/C(O)=C2/C(=O)C(=O)N(CCCN3CCOCC3)C2c2ccc(C)cc2)cc1C (stereo not given) -1.29%, CCOc1cccc(/C(O)=C2/C(=O)C(=O)N(CCOC)C2c2ccco2)c1 (stereo not given) 1.13%, CC1CC(C)CN(C(=O)c2cc(S(=O)(=O)N3CCCCC3)ccc2Cl)C1 (stereo not given) -37.9%, COc1ccc(N2CCN(S(=O)(=O)c3cccc(C(F)(F)F)c3)CC2)cc1 -7.22%, N#CCCn1cc(C(=O)Nc2ccccn2)c(-c2ccccc2)n1 -3.38%, Cc1cc(NS(=O)(=O)c2ccc(NC(=O)COc3ccc(Cl)cc3)cc2)no1 -10.6%, O=C(N/C=C/c1ccccc1)c1ccccc1 -38.8%, CC(C)C(=O)Nc1ccc(C(=O)CN2C(=O)NC3(CCOc4ccccc43)C2=O)cc1 (stereo not given) -39%, COc1ccc2ccc(OC)c(/C=N/n3cnnc3)c2c1 -5.87%, CCN(CC)CCN(C)Cc1nc(C(c2ccccc2)c2ccccc2)no1 -4.55%, Cc1ccc(NC(=O)N(CCC(=O)O)Cc2ccccc2)cc1 -4.4%, COc1ccc(S(=O)(=O)N2CCC(N3CCN(Cc4ccccc4)CC3)CC2)cc1 -9.1%, Cc1cccc(C)c1OCC(=O)Nn1c(=O)[nH]c2ccccc2c1=O 9.45%, CCc1ccc(/C=C2\SC(N3CCOCC3)=NC2=O)cc1 -39%, COC(=O)c1c(NC(=O)c2nc3nc(C)cc(C(F)F)n3n2)sc2c1CCC2 -6.26%, O=C(Cc1cccc2ccccc12)Nc1ccccc1C(=O)O -7.93%, Cc1ccc(NC(=O)C2CC=CCC2C(=O)N2CCCCC2)cc1 (stereo not given) -5.49%, CC(C)(C)c1ccc(OCC(=O)Nc2ccncc2)c(Br)c1 -37.9%, COc1ccc(N(CC(=O)O)S(=O)(=O)c2ccc(OC)c(OC)c2)cc1 1.81%, Cc1ccc(Nc2nc(C)nc3c2oc2ccccc23)cc1 -39.1%, Cc1ccc(C(=O)Nc2ccc(SC(F)F)cc2)s1 -37.5%, COC(=O)CNC(=O)C12CC3(C)CC(C)(CC(C)(C3)C1)C2 -15.2%, O=C(Nc1ccc(F)cc1)/C(Cl)=C/c1ccccc1 -32.3%, Cc1ccc(OCCSc2nc3ccccc3n2CC(=O)O)cc1C -5.44%, CCCCSc1nnc([C@H](C)NC(=O)OC(C)(C)C)o1 -6.85%, O=C(Nc1cccs1)Nc1ccc(Br)cc1F -34%, O=c1sc2ccccc2c(N2CCOCC2)c1[N+](=O)[O-] -7.29%, COc1ccc(C)cc1N(C(=O)c1snc(C(N)=O)c1N)C(C(=O)NC1CCCC1)c1ccc(F)cc1 (stereo not given) -36.7%, O=C(Nn1c(Cc2ccccc2)nc2ccccc2c1=O)c1c(O)c2cccc3c2n(c1=O)CCC3 -2.78%, CCCOc1ccc(S(=O)(=O)NNC(=O)c2cc3ccccc3o2)cc1 1.93%, Cc1ccc(S(=O)(=O)Cc2ccc(C(=O)NCCc3ccccc3)o2)cc1 -35.8%, Cc1ccc(S(=O)(=O)N(C)c2ccc(C)c([N+](=O)[O-])c2)cc1 -5.09%, C#CCOCCOCCOCCNc1nc(N2CCN(C(=O)[C@H]([C@@H](C)CC)n3cc(CCCCN)nn3)CC2)nc(N2CCN(C(=O)[C@H](CCCCN)n3cc(CC(C)O)nn3)CC2)n1 (stereo not given in full) -6.07%, Nc1ccccc1N=Cc1ccc(-c2cccc(Cl)c2)o1 -37.7%, CCN(CC)CCN(C(=O)c1ccc(C(C)=O)cc1)c1nc2ccc(Cl)cc2s1 -14.7%, CCS(=O)(=O)N1CCC(N2CCN(c3ccccc3)CC2)CC1 5.91%, COc1cccc(N2CCN(C(=O)CCS(=O)(=O)c3ccc4c(c3)oc(=O)n4C)CC2)c1 -8.02%, CCN(CC(=O)Nc1ccccc1OC)CC(=O)Nc1sccc1C#N 5.9%, Cc1ccccc1NC(=O)CSc1nc(-c2ccccc2)cc(=O)[nH]1 -10.3%, Cc1ccc(NC(=O)CN(C)C(C)C(=O)Nc2ccc(S(=O)(=O)N3CCCC3)cc2)cc1 (stereo not given) -4.26%, O=C(NCCc1ccccc1)C1c2ccccc2C(=O)N1Cc1cccs1 (stereo not given) 2.33%, Cc1ccccc1-c1nc2cc(Cl)ccc2o1 4.07%, COc1ccc(Cn2nc(-c3ccccc3)c(N3CCCCC3)cc2=O)cc1 -39.1%, O=C(Nc1ccncc1)c1ccc(Br)cc1 -22.6%, COc1ccc(NC(=O)c2ccccc2NC(=O)C2CC=CCC2C(=O)O)cc1 (stereo not given) -4.77%, COc1cc(NC2CCCCC2O)c2nc(-c3ccc(Cl)cc3)ccc2c1 (stereo not given) 2.71%, O=C1c2cccnc2C(Nc2ccc(Br)cc2)N1Cc1cccs1 (stereo not given) -38.5%, CCc1sc(C(=O)NC2CCN(C)CC2)cc1Br -1.61%, CC(C)(C)c1ccc(C(=O)Nc2ccc(C=C(C#N)C#N)cc2)cc1 -39.6%, C=CCC1c2cccc(C(=O)O)c2C(=O)N1c1cccc(OC)c1 (stereo not given) -1.3%, CCN(CC)c1ccc(C(=O)NNC(=O)CCl)cc1 2.08%, CC1CCN(CCOc2ccc(C(=O)c3ccccc3)cc2)CC1 4.67%, COc1ccc(NC(=O)c2ccc3ncsc3c2)cc1 -38.9%

Source: PubChem BioAssay AID623959 (National Center for Advancing Translational Sciences (NCATS), 2012)
